# Results reported in the supplement of paper PMC10849652.
# Sequences of proteins named here, by UniProt entry; tags and fusion partners are left off. A change or cut given only in a name is not applied to a line headed by its entry.
# UniProt Q96LJ7: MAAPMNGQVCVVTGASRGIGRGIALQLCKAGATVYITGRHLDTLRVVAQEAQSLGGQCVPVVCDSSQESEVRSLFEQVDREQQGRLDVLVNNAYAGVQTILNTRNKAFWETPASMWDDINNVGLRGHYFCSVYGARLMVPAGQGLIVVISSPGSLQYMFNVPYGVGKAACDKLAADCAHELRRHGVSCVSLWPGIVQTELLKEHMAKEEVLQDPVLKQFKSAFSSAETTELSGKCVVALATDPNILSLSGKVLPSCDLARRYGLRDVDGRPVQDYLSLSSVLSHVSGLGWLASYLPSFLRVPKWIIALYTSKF
# UniProt Q9GZR7: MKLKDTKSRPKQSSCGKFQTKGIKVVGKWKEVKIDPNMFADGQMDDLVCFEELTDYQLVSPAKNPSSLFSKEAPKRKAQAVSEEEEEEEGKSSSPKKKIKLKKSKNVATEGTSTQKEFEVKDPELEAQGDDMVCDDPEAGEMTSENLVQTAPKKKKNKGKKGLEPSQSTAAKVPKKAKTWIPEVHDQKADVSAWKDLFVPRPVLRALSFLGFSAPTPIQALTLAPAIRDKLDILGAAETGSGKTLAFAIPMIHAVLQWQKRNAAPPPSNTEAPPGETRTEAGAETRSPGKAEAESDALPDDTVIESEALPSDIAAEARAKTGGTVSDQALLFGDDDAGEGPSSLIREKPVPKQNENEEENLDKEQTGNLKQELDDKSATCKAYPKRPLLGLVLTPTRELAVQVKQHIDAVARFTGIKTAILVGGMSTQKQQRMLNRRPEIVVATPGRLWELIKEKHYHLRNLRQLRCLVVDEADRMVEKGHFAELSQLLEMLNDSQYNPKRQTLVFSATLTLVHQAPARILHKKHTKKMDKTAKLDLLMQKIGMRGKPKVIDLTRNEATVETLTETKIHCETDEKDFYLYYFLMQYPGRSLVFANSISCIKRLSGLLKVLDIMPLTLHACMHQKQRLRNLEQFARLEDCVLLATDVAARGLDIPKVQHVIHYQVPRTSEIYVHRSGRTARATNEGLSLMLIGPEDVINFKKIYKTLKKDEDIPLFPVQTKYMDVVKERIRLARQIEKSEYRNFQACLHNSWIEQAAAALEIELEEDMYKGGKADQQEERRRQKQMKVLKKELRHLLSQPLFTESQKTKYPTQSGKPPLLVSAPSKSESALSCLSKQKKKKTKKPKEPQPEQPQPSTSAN
# UniProt Q96FC9: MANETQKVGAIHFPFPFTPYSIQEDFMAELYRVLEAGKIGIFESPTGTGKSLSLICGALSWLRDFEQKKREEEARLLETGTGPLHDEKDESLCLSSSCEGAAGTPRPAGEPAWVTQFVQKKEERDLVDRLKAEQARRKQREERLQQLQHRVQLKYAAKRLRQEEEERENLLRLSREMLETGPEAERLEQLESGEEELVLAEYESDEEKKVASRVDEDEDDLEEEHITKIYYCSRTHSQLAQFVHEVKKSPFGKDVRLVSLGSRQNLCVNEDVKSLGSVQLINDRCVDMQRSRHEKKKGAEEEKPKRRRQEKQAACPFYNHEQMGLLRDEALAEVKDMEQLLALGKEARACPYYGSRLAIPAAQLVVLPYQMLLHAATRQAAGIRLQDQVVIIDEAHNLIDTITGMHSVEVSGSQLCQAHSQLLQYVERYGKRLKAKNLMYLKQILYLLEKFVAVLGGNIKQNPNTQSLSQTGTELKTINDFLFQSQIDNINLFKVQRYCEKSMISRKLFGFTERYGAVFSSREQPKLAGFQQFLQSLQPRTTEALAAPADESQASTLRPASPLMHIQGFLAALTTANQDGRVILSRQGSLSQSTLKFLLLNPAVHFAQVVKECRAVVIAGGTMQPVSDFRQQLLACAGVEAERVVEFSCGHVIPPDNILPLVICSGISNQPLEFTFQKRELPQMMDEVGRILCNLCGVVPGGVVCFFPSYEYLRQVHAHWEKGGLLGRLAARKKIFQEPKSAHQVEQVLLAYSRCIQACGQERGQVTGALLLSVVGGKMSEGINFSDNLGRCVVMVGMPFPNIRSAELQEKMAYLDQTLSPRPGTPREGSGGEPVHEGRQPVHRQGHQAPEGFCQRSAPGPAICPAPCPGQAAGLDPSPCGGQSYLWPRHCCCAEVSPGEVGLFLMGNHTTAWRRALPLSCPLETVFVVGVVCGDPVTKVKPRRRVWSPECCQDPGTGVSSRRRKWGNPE
# UniProt P10515, whole entry, looked up: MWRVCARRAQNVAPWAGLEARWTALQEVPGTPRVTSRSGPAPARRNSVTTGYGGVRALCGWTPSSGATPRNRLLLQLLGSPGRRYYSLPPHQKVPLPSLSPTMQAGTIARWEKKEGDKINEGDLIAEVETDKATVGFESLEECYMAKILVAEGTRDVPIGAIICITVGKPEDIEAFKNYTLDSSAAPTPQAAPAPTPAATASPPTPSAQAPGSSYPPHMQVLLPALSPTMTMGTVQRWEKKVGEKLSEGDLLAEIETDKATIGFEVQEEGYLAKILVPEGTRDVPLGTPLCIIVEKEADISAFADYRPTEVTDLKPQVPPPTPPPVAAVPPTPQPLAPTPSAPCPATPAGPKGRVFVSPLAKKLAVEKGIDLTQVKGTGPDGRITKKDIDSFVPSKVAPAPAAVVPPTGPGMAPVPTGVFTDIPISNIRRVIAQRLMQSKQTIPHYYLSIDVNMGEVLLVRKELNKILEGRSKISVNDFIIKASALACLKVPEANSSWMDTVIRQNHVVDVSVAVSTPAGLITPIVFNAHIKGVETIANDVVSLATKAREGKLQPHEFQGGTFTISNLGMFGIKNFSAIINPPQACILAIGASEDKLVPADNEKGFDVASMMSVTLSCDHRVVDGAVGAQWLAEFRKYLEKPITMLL
# UniProt P11532, whole entry, looked up: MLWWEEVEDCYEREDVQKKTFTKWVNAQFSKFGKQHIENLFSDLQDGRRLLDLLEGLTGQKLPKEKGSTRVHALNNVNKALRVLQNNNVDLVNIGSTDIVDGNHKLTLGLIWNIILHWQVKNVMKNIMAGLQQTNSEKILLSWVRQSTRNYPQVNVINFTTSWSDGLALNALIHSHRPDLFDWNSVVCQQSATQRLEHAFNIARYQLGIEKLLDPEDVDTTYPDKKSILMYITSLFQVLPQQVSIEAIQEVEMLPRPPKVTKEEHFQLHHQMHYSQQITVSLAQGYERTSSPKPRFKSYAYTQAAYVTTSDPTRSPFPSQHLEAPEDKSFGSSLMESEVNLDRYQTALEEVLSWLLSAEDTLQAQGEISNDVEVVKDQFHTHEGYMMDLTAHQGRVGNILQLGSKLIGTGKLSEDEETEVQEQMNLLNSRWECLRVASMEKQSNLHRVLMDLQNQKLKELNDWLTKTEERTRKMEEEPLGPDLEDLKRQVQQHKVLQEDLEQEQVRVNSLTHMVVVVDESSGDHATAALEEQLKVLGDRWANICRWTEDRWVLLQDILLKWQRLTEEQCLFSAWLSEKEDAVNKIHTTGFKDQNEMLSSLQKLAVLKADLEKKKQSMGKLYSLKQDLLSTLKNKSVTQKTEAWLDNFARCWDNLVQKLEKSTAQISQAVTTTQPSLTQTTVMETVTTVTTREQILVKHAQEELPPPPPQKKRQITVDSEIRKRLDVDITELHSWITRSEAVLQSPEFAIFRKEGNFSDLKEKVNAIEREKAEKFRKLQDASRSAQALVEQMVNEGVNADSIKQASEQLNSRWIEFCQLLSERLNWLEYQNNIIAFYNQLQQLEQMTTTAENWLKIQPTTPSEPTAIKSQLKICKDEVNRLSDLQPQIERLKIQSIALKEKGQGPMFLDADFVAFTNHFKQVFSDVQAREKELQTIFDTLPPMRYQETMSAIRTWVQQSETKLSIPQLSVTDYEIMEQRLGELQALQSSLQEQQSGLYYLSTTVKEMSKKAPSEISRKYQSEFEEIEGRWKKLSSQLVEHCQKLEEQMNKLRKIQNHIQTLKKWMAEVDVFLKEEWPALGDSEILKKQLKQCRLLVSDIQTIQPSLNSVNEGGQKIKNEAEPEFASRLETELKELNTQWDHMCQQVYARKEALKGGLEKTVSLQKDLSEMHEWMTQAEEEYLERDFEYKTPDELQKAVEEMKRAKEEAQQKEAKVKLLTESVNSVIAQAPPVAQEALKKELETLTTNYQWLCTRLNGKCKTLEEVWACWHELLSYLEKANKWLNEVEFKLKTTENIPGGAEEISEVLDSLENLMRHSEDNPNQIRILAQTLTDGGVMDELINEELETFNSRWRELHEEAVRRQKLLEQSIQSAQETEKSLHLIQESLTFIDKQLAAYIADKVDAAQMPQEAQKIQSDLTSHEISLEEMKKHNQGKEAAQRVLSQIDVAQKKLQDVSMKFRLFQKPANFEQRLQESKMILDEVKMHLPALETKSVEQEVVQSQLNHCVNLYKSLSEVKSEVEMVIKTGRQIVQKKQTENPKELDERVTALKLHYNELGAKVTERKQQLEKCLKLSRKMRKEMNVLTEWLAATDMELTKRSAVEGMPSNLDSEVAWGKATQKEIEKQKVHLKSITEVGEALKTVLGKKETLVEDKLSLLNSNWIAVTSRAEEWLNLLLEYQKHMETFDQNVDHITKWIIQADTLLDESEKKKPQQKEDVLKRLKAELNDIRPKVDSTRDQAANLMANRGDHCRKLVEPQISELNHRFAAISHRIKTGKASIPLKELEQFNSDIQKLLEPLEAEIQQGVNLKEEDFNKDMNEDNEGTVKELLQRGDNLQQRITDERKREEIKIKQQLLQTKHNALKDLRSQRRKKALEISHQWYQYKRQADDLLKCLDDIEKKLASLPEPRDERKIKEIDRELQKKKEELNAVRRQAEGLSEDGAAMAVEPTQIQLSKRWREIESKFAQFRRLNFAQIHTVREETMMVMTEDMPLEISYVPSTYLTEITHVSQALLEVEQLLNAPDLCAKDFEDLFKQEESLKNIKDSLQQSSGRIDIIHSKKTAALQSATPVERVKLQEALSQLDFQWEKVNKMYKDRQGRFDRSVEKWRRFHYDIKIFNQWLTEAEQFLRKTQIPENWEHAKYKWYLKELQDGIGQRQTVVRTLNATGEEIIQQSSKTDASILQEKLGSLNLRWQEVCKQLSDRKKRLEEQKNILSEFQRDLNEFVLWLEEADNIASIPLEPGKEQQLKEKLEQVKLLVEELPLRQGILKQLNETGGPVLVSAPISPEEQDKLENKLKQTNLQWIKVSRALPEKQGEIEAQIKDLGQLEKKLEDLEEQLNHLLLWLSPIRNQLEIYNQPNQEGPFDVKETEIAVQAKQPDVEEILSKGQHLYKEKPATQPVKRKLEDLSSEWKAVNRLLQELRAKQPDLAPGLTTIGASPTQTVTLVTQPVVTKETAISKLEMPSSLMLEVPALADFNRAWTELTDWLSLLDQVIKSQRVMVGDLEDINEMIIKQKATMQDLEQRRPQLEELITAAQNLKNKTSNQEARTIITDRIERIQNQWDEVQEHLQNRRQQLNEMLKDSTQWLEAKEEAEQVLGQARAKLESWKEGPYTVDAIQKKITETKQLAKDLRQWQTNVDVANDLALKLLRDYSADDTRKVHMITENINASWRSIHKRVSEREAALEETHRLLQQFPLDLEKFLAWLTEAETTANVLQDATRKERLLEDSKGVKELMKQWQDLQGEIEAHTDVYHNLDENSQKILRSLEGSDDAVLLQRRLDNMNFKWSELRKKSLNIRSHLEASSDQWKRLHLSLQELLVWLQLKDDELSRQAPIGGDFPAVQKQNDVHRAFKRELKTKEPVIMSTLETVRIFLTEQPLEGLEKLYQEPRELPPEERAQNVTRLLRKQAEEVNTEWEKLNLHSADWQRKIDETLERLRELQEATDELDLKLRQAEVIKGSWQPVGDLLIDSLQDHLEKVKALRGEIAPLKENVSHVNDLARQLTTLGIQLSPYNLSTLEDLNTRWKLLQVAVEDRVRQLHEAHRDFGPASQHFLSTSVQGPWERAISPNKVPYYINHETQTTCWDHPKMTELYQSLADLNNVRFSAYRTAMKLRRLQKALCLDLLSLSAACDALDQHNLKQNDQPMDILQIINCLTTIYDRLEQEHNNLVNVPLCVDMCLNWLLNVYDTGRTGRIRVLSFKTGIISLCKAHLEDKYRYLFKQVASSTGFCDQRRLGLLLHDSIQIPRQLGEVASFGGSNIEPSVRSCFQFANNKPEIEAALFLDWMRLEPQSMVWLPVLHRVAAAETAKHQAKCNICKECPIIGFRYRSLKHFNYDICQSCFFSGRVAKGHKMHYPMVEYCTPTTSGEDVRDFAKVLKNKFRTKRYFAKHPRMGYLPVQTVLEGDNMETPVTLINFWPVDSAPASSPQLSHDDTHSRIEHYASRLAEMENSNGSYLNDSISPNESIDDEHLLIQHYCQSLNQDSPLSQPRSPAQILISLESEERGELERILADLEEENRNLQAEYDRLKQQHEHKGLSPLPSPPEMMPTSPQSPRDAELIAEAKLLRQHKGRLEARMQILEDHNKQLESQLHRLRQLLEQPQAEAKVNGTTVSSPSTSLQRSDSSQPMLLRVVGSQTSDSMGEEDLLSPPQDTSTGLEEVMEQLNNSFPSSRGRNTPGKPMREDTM
# The other results are listed elsewhere or left out.
# Key:
# Assay in all cases: log2 fold change, soluble protein after heating vs DMSO (PISA); higher = thermal stabilisation; K562 cells, 10 uM, 30 min; active = over 0.2 and 3.5 SD of the protein, either way, in both replicates (recomputed)
# [1] = compound: NC(=O)Nc1cc(-c2cccc(F)c2)sc1C(=O)N[C@H]1CCCNC1
# Outline: (§1)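 Aliquots of K562 cells (2×10^6 cells/mL) treated with 10 μM compound for 30 min were heated for 3 min over 48°C-58°C. After pooling and extraction in PBS with 0.5% NP-40 at 4°C, soluble protein from a 21,000xg, 90 min spin was quantified by TMTpro 16plex LC-MS/MS with channel sums equalised. Thermal stability is expressed against control samples, from duplicates, as a log2 fold change.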
# [2] = compound: NC(=O)c1cnc(N[C@@H]2CCCC[C@@H]2N)nc1Nc1cccc(-n2nccn2)c1
# Outline: as §1
# [3] = compound: NC1(c2ccc(-c3nc4ccn5c(=O)[nH]nc5c4cc3-c3ccccc3)cc2)CCC1
# Outline: as §1
# [4] = compound: NCC(=O)Nc1ccc(-n2nc(C(F)(F)F)cc2-c2ccc3c(ccc4ccccc43)c2)cc1
# Outline: as §1
# entinostat = compound: Nc1ccccc1NC(=O)c1ccc(CNC(=O)OCc2cccnc2)cc1 [entinostat]
# Outline: as §1
# vorinostat = compound: O=C(CCCCCCC(=O)Nc1ccccc1)NO [vorinostat]
# Outline: as §1
# citarinostat = compound: O=C(CCCCCCNC(=O)c1cnc(N(c2ccccc2)c2ccccc2Cl)nc1)NO [citarinostat]
# Outline: as §1
# silmitasertib = compound: O=C(O)c1ccc2c(c1)nc(Nc1cccc(Cl)c1)c1ccncc12 [silmitasertib]
# Outline: as §1
# [5] = compound: O=C1NC(=O)C(c2cnc3ccccn23)=C1c1cn2c3c(cc(F)cc13)CN(C(=O)N1CCCCC1)CC2
# Outline: as §1
# [6] = compound: c1cc(OCCN2CCCCC2)cc(-c2n[nH]c3ccc(-c4nnc[nH]4)cc23)c1
# Outline: as §1
Target,log2 fold change [1],log2 fold change [2],log2 fold change [3],log2 fold change [4],log2 fold change (entinostat),log2 fold change (vorinostat),log2 fold change (citarinostat),log2 fold change (silmitasertib),log2 fold change [5],log2 fold change [6]
DGAT1 (UniProt O75907),inactive: 0.04,inactive: -0.019,inactive: 0.022,inactive: 0.054,inactive: 0.017,inactive: 0.006,inactive: 0.016,inactive: 0.07,inactive: 0.106,inactive: -0.16
DIDO1 (UniProt Q9BTC0),inactive: -0.016,inactive: -0.02,inactive: 0.032,–,inactive: 0.037,inactive: 0.031,inactive: -0.075,inactive: -0.036,inactive: -0.02,inactive: -0.221
DDX20 (UniProt Q9UHI6),inactive: 0.14,inactive: 0.096,inactive: -0.047,–,inactive: 0.039,inactive: 0.123,inactive: -0.083,inactive: 0.081,inactive: 0.275,inactive: -0.093
DHRS1 (UniProt Q96LJ7),inactive: -0.118,inactive: -0.047,inactive: 0.184,inactive: 0.095,inactive: -0.082,inactive: -0.098,inactive: -0.237,inactive: 0,active: 0.834,inactive: 0.291
DDX24 (UniProt Q9GZR7),inactive: 0.016,inactive: 0.155,inactive: -0.232,inactive: 0.416,inactive: -0.087,inactive: -0.031,–,inactive: 0.164,inactive: 0.169,–
DGKE (UniProt P52429),inactive: 0.117,inactive: -0.032,inactive: -0.308,–,inactive: 0.005,–,–,inactive: 0.023,–,–
DIP2B (UniProt Q9P265),inactive: -0.024,inactive: -0.003,inactive: -0.043,inactive: 0.015,inactive: 0.013,inactive: -0.012,inactive: 0.003,inactive: -0.046,inactive: -0.016,inactive: -0.029
DNAH8 (UniProt Q96JB1),inactive: -0.122,inactive: -0.076,inactive: -0.039,inactive: 0.037,inactive: -0.013,–,inactive: -0.028,inactive: 0.183,inactive: -0.104,inactive: 0.404
DIP2A (UniProt Q14689),inactive: -0.056,inactive: 0.007,inactive: -0.356,inactive: 0.017,inactive: 0.002,inactive: 0.031,inactive: 0.043,inactive: 0.1,inactive: -0.016,inactive: 0.004
DDX11 (UniProt Q96FC9),inactive: -0.1,inactive: -0.099,inactive: -0.061,inactive: 0.032,inactive: -0.009,–,–,inactive: 0.191,inactive: -0.007,–
DDOST (UniProt P39656),inactive: 0.003,inactive: -0.013,inactive: -0.057,inactive: 0.014,inactive: 0.007,inactive: -0.036,inactive: 0.017,inactive: 0.05,inactive: -0.017,inactive: -0.116
DERL2 (UniProt Q9GZP9),inactive: -0.058,inactive: 0.049,inactive: 0.064,inactive: -0.071,inactive: 0.045,inactive: -0.077,–,inactive: 0.027,inactive: 0.238,–
DENND1B (UniProt Q6P3S1),inactive: -0.152,inactive: -0.05,inactive: -0.703,inactive: 0.11,inactive: -0.152,–,inactive: -0.125,inactive: 0.467,inactive: -0.17,inactive: 0.013
DDX19B (UniProt Q9UMR2),inactive: 0.011,inactive: -0.027,inactive: -0.122,inactive: 0.016,inactive: 0.033,inactive: 0.047,inactive: 0.015,inactive: -0.008,inactive: 0.018,inactive: 0.01
DENND4C isoform 7 (UniProt Q5VZ89),inactive: -0.001,inactive: -0.106,inactive: -0.17,inactive: -0.009,inactive: 0.051,inactive: -0.098,inactive: 0.176,inactive: 0.067,inactive: 0.051,inactive: -0.057
DIAPH1 (UniProt O60610),inactive: -0.156,inactive: -0.085,inactive: -0.067,inactive: -0.064,inactive: 0.024,inactive: 0.066,inactive: 0.056,inactive: 0.115,inactive: 0.178,inactive: -0.046
DENND4B (UniProt O75064),inactive: 0.009,inactive: 0.06,inactive: 0.002,inactive: -0.021,inactive: 0.026,inactive: 0.044,–,inactive: 0.029,inactive: -0.043,–

# 2 entries from above, as tab-separated lines:
Target	log2 fold change [1]	log2 fold change [2]	log2 fold change [3]	log2 fold change [4]	log2 fold change (entinostat)	log2 fold change (vorinostat)	log2 fold change (citarinostat)	log2 fold change (silmitasertib)	log2 fold change [5]	log2 fold change [6]
DIDO1 (UniProt Q9BTC0)	inactive: -0.016	inactive: -0.02	inactive: 0.032	–	inactive: 0.037	inactive: 0.031	inactive: -0.075	inactive: -0.036	inactive: -0.02	inactive: -0.221
DDX20 (UniProt Q9UHI6)	inactive: 0.14	inactive: 0.096	inactive: -0.047	–	inactive: 0.039	inactive: 0.123	inactive: -0.083	inactive: 0.081	inactive: 0.275	inactive: -0.093

# (continued)

Target,log2 fold change [1],log2 fold change [2],log2 fold change [3],log2 fold change [4],log2 fold change (entinostat),log2 fold change (vorinostat),log2 fold change (citarinostat),log2 fold change (silmitasertib),log2 fold change [5],log2 fold change [6]
DLG3 (UniProt Q92796),inactive: -0.037,inactive: 0.028,inactive: -0.081,inactive: 0.052,inactive: -0.009,inactive: 0.054,–,inactive: -0.034,inactive: 0.031,–
DLAT (UniProt P10515),inactive: -0.044,inactive: 0.049,inactive: -0.032,inactive: 0.143,inactive: -0.005,inactive: -0.055,inactive: -0.055,inactive: 0.053,inactive: 0.043,inactive: -0.198
DNAH9 (UniProt Q9NYC9),inactive: 0.016,inactive: 0.01,inactive: 0.003,inactive: -0.007,inactive: -0.042,inactive: 0.011,inactive: 0.118,inactive: -0.025,inactive: -0.021,inactive: -0.04
DENND10 (UniProt Q8TCE6),inactive: 0.018,inactive: 0,inactive: -0.089,inactive: -0.069,inactive: -0.076,–,inactive: 0.07,inactive: 0.037,inactive: 0.073,inactive: 0.054
DHX36 (UniProt Q9H2U1),inactive: 0,inactive: 0.025,inactive: -0.028,inactive: 0.056,inactive: -0.003,inactive: -0.028,inactive: 0.014,inactive: 0.009,inactive: 0.11,active: -0.283
DLST (UniProt P36957),inactive: 0.04,inactive: 0.025,inactive: 0.04,inactive: 0.071,inactive: -0.033,inactive: -0.029,inactive: -0.049,inactive: -0.006,inactive: 0.015,inactive: -0.069
DDX21 (UniProt Q9NR30),inactive: 0.078,inactive: 0.123,inactive: 0.332,inactive: -0.015,inactive: -0.009,inactive: 0.037,inactive: 0.04,inactive: 0.071,inactive: 0.137,inactive: -0.106
DMD (UniProt P11532),inactive: -0.009,inactive: -0.025,inactive: -0.05,inactive: -0.019,inactive: -0.01,inactive: 0.05,inactive: 0.034,inactive: -0.011,inactive: -0.089,inactive: -0.021
DICER1 (UniProt Q9UPY3),inactive: -0.166,inactive: -0.082,inactive: -0.09,inactive: 0.078,inactive: 0.075,inactive: 0.085,–,inactive: 0.119,inactive: 0.133,–
DHX15 (UniProt O43143),inactive: 0.016,inactive: 0.042,inactive: 0.002,inactive: 0.002,inactive: -0.017,inactive: 0.005,inactive: -0.006,inactive: 0,inactive: 0.002,inactive: -0.036
DHX34 (UniProt Q14147),–,–,–,–,–,–,inactive: -0.078,–,inactive: -0.074,inactive: 0
DDX39B (UniProt H0Y400),–,–,–,–,–,–,–,–,inactive: 0.152,–
DFFA isoform 2 (UniProt O00273),–,–,inactive: 0.04,–,–,–,–,inactive: -0.106,inactive: 0.058,–
DERPC (UniProt P0CG12),–,–,inactive: 0.008,inactive: -0.16,–,inactive: -0.042,inactive: -0.049,inactive: -0.024,–,inactive: -0.045
DENND1A isoform 6 (UniProt Q8TEH3),–,–,–,inactive: -0.119,–,–,–,–,–,–
DIEXF (UniProt Q68CQ4),–,–,–,inactive: -0.111,–,–,–,–,–,–
